Results published in article PMC9820316, “Novel Arylpiperazine Derivatives of Salicylamide with α1-Adrenolytic Properties Showed Antiarrhythmic and Hypotensive Properties in Rats” (International Journal of Molecular Sciences, 2022).

Test system: normotensive rats
Test: Influence on blood pressure in the normotensive rats
Assay type: in vivo, rat
Details: lowest hypotensive dose vs ED50 in adrenaline-induced arrhythmia
Description: The experiment was performed according to the method described earlier. Normotensive Wistar rats were anesthetized with thiopental (75 mg/kg ip). The right carotid artery was cannulated with a polyethylene tube filled with heparin solution, using a Datamax apparatus (Columbus Instruments, Columbus, OH, USA). After 15 min of the stabilization period, the studied compounds were administered iv, and their effect on systolic and diastolic blood pressure was evaluated (Figure 4A).

`Cl.NC(=O)c1ccccc1OCCCCN1CCN(c2cccc(Cl)c2)CC1` [JJGW01, 2-{4-[4-(3-chlorophenyl)piperazin-1-ylo]butoxy}benzamide hydrochloride] was tested, and the “dose lowering blood pressure relative to the ED50 value for antiarrhythmic effect” value was 10 fold.
